This is an account of results in PMC2908623.

The chains behind the UniProt entries cited, without tags or fusion partners. Residues count along the entry.
UniProt P23359, residues 292-430: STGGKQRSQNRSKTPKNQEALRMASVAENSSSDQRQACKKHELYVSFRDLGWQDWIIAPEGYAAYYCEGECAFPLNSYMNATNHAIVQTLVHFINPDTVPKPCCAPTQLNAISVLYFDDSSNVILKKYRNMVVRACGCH

Results are given in words; binding and its absence hold for the method and conditions named. Binding seen in cells or lysates may run through a third protein. Some entries that bind do so weakly or less than the wild type.

This experiment deals with bone morphogenetic protein-7 (mouse (endogenous in mouse mesangial cells)) (UniProt P23359). Kind of experiment: co-IP; endogenous proteins in lysate of mouse mesangial cells (RIPA buffer: 20 mM Tris-HCl pH 7.4, 100 mM NaCl, 1 mM CaCl2, 1 mM MgCl2, 1% Triton X-100); precipitated with rabbit antibodies against mouse Gremlin or BMP-7 and protein A-Sepharose, overnight at 4°C; blotted for BMP-7 or Gremlin; normal rabbit IgG as negative control; cells cultured under high glucose.

B1: Gremlin (protein, UniProt O70326 25-184)
chain: KKKGSQGAIPPPDKAQHNDSEQTQSPPQPGSRTRGRGQGRGTAMPGEEVLESSQEALHVTERKYLKRDWCKTQPLKQTIHEEGCNSRTIINRFCYGQCNSFYIPRHIRKEEGSFQSCSFCKPKKFTTMMVTLNCPELQPPTKKKRVTRVKQCRCISIDLD
Consider B1, for which the binding result is given as “binds”.
